Source: the supplement of paper PMC12067093, “Discovery and optimisation of a covalent ligand for TRIM25 and its application to targeted protein ubiquitination” (Chemical Science, 2025)
The other results are listed elsewhere or left out.

Sequences of proteins named here, by UniProt entry; tags and fusion partners are left off. A change or cut given only in a name is not applied to a line headed by its entry.
UniProt Q96JH7: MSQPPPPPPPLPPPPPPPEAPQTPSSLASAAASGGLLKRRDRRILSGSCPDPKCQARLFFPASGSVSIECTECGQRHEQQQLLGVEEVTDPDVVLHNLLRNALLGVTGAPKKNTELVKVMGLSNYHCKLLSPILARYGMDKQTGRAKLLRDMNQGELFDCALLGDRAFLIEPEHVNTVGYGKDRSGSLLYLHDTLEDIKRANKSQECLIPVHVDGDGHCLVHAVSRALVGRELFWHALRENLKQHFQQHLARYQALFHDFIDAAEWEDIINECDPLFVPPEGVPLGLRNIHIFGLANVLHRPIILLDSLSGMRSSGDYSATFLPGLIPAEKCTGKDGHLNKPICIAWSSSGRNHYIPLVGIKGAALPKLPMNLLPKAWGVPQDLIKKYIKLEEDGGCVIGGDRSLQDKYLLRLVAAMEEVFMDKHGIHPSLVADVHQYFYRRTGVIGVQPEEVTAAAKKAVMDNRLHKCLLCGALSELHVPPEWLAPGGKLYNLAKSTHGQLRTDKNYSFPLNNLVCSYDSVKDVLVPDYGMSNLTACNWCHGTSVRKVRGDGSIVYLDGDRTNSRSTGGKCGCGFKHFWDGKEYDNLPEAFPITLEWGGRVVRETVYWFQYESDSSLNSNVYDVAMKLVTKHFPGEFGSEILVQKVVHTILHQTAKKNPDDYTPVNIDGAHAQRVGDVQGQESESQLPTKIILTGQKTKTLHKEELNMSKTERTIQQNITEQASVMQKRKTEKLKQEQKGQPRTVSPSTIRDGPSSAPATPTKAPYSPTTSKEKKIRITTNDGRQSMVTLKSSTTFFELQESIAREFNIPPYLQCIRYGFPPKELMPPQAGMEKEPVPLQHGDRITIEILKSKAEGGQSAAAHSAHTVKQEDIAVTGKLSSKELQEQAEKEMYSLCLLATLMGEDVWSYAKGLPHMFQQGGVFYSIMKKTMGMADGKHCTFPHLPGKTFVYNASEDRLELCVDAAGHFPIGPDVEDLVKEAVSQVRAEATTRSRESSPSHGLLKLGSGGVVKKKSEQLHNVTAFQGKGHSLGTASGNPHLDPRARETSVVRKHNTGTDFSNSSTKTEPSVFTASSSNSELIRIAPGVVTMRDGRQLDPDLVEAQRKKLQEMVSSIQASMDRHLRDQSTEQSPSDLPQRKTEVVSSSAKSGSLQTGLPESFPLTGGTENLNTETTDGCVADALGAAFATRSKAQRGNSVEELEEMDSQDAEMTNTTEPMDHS
UniProt Q9H269: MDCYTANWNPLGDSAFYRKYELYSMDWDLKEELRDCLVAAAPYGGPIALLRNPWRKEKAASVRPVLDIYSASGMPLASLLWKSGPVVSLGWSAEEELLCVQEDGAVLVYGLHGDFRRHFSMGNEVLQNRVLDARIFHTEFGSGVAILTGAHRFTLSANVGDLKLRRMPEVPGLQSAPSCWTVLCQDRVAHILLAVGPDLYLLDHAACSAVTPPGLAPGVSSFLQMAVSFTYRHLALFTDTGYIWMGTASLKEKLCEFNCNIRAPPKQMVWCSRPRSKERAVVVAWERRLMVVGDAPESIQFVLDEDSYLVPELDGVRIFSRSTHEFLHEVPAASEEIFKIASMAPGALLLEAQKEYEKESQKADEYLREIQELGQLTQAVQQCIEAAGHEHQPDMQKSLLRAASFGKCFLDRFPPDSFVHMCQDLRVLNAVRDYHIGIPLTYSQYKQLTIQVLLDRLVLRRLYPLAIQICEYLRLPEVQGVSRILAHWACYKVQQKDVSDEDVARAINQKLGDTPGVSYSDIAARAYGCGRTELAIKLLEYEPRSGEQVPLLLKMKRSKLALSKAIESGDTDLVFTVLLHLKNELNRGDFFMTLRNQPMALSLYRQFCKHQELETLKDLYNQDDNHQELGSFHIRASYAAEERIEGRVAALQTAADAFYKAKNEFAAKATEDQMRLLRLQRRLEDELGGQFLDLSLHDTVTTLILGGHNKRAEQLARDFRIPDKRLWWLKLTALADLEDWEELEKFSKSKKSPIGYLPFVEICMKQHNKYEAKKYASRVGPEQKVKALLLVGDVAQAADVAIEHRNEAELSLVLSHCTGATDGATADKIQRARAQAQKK
UniProt P55072, whole entry, looked up: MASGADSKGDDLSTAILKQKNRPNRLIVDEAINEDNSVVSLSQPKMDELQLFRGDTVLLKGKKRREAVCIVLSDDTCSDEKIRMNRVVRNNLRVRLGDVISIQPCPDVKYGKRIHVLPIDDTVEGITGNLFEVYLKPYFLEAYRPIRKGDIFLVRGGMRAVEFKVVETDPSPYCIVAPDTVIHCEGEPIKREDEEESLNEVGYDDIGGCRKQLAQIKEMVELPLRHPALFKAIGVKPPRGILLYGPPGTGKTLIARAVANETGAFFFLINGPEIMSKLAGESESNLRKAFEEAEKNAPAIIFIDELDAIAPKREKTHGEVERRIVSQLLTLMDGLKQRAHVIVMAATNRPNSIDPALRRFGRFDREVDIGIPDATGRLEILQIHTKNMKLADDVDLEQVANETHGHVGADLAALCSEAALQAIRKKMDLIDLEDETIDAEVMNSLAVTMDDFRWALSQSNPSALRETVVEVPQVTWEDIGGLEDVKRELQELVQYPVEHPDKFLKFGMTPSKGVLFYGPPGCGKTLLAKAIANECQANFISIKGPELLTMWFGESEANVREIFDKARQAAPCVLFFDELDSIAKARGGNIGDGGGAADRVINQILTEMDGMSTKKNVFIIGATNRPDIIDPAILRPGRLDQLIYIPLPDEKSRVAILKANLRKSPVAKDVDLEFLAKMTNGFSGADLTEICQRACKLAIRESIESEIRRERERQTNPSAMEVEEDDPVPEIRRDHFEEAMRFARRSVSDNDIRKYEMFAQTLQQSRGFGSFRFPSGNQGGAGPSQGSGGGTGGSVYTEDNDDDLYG
UniProt Q93008, whole entry, looked up: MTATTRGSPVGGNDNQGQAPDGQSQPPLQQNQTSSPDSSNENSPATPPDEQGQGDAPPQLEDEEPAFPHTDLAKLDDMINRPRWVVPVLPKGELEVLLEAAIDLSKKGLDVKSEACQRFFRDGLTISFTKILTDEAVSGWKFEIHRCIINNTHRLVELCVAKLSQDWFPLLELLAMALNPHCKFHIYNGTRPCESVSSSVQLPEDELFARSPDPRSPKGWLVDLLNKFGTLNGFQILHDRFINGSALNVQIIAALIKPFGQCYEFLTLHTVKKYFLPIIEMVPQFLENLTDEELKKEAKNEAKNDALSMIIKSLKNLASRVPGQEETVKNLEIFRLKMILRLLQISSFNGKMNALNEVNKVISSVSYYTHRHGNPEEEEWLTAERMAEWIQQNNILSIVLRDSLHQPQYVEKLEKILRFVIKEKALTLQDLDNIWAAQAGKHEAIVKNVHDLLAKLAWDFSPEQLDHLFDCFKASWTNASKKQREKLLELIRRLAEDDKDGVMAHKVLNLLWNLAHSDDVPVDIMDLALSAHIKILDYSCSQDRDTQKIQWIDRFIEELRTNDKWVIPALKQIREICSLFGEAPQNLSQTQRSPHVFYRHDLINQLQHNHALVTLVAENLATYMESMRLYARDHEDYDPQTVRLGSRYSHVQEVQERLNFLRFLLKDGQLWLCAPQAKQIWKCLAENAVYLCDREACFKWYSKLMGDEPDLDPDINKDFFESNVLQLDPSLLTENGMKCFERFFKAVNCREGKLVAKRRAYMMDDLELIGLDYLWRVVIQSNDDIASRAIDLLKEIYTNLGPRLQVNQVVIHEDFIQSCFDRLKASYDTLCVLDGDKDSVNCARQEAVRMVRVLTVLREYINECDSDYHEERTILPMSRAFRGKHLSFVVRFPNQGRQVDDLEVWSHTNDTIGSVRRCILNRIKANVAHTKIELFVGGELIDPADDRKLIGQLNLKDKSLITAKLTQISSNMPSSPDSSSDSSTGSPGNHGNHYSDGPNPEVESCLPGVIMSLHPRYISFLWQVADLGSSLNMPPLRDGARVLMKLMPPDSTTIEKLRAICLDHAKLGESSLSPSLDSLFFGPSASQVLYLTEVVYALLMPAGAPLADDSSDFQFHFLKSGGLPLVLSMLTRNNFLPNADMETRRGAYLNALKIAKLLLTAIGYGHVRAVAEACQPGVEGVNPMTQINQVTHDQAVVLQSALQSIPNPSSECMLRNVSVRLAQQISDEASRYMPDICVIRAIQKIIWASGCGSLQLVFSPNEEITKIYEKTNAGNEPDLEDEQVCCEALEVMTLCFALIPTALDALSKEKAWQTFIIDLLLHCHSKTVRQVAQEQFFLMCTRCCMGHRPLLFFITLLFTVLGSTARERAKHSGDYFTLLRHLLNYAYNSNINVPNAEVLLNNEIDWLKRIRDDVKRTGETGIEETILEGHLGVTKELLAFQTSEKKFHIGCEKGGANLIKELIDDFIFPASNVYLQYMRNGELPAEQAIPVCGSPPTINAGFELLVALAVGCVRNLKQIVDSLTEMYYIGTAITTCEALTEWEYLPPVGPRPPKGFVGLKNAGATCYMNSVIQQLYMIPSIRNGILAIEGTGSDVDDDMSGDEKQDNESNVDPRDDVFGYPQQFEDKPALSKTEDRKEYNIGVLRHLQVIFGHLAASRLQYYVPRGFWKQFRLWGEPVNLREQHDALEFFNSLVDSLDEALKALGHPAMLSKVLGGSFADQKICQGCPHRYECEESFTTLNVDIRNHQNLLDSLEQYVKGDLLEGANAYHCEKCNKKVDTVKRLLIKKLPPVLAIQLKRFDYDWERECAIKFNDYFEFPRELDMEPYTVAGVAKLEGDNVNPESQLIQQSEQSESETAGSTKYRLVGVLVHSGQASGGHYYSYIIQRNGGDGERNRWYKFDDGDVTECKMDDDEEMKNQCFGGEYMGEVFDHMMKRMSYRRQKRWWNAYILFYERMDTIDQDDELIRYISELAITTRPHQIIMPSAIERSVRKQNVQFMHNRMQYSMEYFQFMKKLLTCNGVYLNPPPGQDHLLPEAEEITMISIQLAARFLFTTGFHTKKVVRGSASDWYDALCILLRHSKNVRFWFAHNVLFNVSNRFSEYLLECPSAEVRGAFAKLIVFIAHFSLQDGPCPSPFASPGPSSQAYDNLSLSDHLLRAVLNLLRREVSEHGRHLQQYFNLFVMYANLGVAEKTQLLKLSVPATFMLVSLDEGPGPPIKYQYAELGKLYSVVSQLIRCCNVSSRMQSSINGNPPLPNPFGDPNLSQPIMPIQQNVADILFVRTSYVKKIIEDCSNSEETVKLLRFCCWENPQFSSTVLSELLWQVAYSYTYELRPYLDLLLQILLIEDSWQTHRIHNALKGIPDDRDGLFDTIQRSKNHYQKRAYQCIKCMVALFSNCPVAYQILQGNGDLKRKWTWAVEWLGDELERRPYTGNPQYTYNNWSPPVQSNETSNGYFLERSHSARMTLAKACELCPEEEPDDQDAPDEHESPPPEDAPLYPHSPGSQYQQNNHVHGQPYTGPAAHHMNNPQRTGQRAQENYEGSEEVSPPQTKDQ
UniProt P52735: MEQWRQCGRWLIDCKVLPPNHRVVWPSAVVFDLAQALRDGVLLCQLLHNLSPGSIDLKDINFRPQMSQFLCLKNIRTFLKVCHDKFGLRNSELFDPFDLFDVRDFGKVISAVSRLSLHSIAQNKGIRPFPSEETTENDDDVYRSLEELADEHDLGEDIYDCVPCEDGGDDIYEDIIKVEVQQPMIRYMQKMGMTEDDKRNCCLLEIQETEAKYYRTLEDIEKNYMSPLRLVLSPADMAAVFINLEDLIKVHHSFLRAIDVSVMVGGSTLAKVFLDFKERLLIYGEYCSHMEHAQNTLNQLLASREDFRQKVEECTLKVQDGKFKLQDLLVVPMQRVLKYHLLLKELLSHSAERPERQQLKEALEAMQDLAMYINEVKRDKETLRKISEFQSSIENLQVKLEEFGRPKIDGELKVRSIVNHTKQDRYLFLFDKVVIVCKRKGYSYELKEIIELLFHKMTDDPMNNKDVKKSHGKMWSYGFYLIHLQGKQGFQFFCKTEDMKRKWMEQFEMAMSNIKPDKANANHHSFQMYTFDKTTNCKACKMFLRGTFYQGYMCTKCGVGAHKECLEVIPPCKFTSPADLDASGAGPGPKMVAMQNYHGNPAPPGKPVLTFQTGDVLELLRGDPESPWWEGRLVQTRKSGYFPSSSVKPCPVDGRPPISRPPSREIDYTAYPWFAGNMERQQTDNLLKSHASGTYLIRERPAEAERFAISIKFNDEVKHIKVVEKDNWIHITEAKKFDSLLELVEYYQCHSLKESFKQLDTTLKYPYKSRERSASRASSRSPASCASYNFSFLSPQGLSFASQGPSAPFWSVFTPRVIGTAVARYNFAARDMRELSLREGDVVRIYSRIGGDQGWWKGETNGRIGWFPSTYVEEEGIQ
UniProt P51809, whole entry, looked up: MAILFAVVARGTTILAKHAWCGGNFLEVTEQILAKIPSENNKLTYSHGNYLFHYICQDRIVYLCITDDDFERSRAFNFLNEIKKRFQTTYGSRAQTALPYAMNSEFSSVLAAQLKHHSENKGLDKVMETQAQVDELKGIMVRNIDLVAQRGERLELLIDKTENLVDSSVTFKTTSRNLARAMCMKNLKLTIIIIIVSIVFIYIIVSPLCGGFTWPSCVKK

compound: CC1Cc2ccccc2N1C(=O)C1CCCN(C1)C(=O)CCl (mixture of isomers) [TRIM25 ligand 11 (diastereomer mixture)]; assay: probe-labelled cysteine peptide fold change vs DMSO (competition) (log2 fold change); higher = less target engagement (more negative = stronger competition); details: 10 µM; THP-1; incubation time: 4 h
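Also: competitive chemoproteomic profiling in live THP-1 cells with an iodoacetamide desthiobiotin (IA-DTB) probe, comparing probe-labelled peptide intensities in compound-treated cells against DMSO-treated controls.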

Target | probe-labelled cysteine peptide fold change
UVRAG_Q9P2Y5_204_AQCAIK (UniProt Q9P2Y5) | -0.119
VLDLR_P98155_127_IHEISCGAHSTQCIPVSWR (UniProt P98155) | 0.112
VPS4B_O75351_384_ADPNHLVDDLLTPCSPGDPGAIEMTWMDVPGDK (UniProt O75351) | 0.0288
VARS_P26640_340_GVFMMCIPPPNVTGSLHLGHALTNAIQDSLTR (UniProt P26640) | -0.0333
VCPIP1_Q96JH7_940_HCTFPHLPGK (UniProt Q96JH7) | 0.0492
VASP_P50552_7_SETVICSSR (UniProt P50552) | 0.55
UTP23_Q9BRU9_35_EPYQILLDGTFCQAALR (UniProt Q9BRU9) | -0.223
VRK1_Q99986_220_CHDGTIEFTSIDAHNGVAPSR (UniProt Q99986) | 0.0205
VPS52_Q8N1B4_119_DYIQESENIASLHNQITACDAVLER (UniProt Q8N1B4) | 0.0198
VPS13C_Q709C8_1098_LNAFCVIVCNEK (UniProt Q709C8) | 0.212
VPS16_Q9H269_763_SPIGYLPFVEICMK (UniProt Q9H269) | -0.00479
VPS39_Q96JC1_239_CALNWTDIPVAMEHQPPYIIAVLPR (UniProt Q96JC1) | 0.176
USP8_P40818_939_STVQCLTCHK (UniProt P40818) | 0.0545
VPS29_Q9UBQ0_41_IQHILCTGNLCTK (UniProt Q9UBQ0) | -0.09
VCP_P55072_572_QAAPCVLFFDELDSIAK (UniProt P55072) | -0.128
USP9X_Q93008_864_EYINECDSDYHEER (UniProt Q93008) | -0.0144
VRK1_Q99986_205_YCPEGVHK (UniProt Q99986) | 0.0323
USP9X_Q93008_471_LAWDFSPEQLDHLFDCFK (UniProt Q93008) | 0.345
UTP18_Q9Y5J1_302_ACFSANGEEVLATSTHSK (UniProt Q9Y5J1) | 0.129
VAPA_Q9P0L0_179_KLMEECK (UniProt Q9P0L0) | -0.142

Target | probe-labelled cysteine peptide fold change
USP9X_Q93008_540_ILDYSCSQDRDTQK (UniProt Q93008) | 0.0146
VASP_P50552_334_SSSSVTTSETQPCTPSSSDYSDLQR (UniProt P50552) | -0.0716
VARS_P26640_381_GETTLWNPGCDHAGIATQVVVEK (UniProt P26640) | 0.0505
VCP_P55072_105_LGDVISIQPCPDVK (UniProt P55072) | -0.0602
UTP18_Q9Y5J1_90_CLEELVFGDVENDEDALLRR (UniProt Q9Y5J1) | -0.132
VPS13C_Q709C8_2276_GIEHSLIEENCGVVVESIQVTLECGLGHR (UniProt Q709C8) | -0.283
VPS52_Q8N1B4_119_SIRDYIQESENIASLHNQITACDAVLER (UniProt Q8N1B4) | -0.293
VAV2_P52735_44_DGVLLCQLLHNLSPGSIDLK (UniProt P52735) | -0.00185
UTP20_O75691_295_EHFGTFFECLQESLLDLHTK (UniProt O75691) | 0.19
UTP6_Q9NYH9_566_EELNHPLGRPENCGQIYWR (UniProt Q9NYH9) | -0.17
VLDLR_P98155_251_CPASEIQCGSGECIHK (UniProt P98155) | 0.13
VPS41_P49754_332_GFQENECR (UniProt P49754) | 0.135
VARS_P26640_444_ACFTMDPK (UniProt P26640) | 0.162
VPS8_Q8N3P4_512_QDCLTEALALAWSFHEGK (UniProt Q8N3P4) | 0.0893
VAMP7_P51809_21_HAWCGGNFLEVTEQILAK (UniProt P51809) | 0.0773
VPS13C_Q709C8_2289_GIEHSLIEENCGVVVESIQVTLECGLGHR (UniProt Q709C8) | 0.103
USP7_Q93009_961_IIGVHQEDELLECLSPATSR (UniProt Q93009) | 0.324
VAV1_P15498_369_DLAQCVNEVK (UniProt P15498) | 0.166
VPS72_Q15906_163_GPHCERPLTQEELLR (UniProt Q15906) | 0.0992
VARS_P26640_41_ICLQPPPTSR (UniProt P26640) | 0.0116

same assay, conditions: 50 µM; THP-1; incubation time: 4 h

Target | probe-labelled cysteine peptide fold change
UVRAG_Q9P2Y5_204_AQCAIK (UniProt Q9P2Y5) | 0.075
VLDLR_P98155_127_IHEISCGAHSTQCIPVSWR (UniProt P98155) | 0.0305
VPS4B_O75351_384_ADPNHLVDDLLTPCSPGDPGAIEMTWMDVPGDK (UniProt O75351) | 0.138
VARS_P26640_340_GVFMMCIPPPNVTGSLHLGHALTNAIQDSLTR (UniProt P26640) | -0.0484
VCPIP1_Q96JH7_940_HCTFPHLPGK (UniProt Q96JH7) | 0.0163
VASP_P50552_7_SETVICSSR (UniProt P50552) | 0.717
UTP23_Q9BRU9_35_EPYQILLDGTFCQAALR (UniProt Q9BRU9) | 0.152
VRK1_Q99986_220_CHDGTIEFTSIDAHNGVAPSR (UniProt Q99986) | -0.0347
VPS52_Q8N1B4_119_DYIQESENIASLHNQITACDAVLER (UniProt Q8N1B4) | 0.119
VPS13C_Q709C8_1098_LNAFCVIVCNEK (UniProt Q709C8) | 0.179
VPS16_Q9H269_763_SPIGYLPFVEICMK (UniProt Q9H269) | 0.0346
VPS39_Q96JC1_239_CALNWTDIPVAMEHQPPYIIAVLPR (UniProt Q96JC1) | -0.0862
USP8_P40818_939_STVQCLTCHK (UniProt P40818) | 0.19
VPS29_Q9UBQ0_41_IQHILCTGNLCTK (UniProt Q9UBQ0) | -0.0263
VCP_P55072_572_QAAPCVLFFDELDSIAK (UniProt P55072) | -0.234
USP9X_Q93008_864_EYINECDSDYHEER (UniProt Q93008) | -0.081
VRK1_Q99986_205_YCPEGVHK (UniProt Q99986) | -0.0156
USP9X_Q93008_471_LAWDFSPEQLDHLFDCFK (UniProt Q93008) | 0.292
UTP18_Q9Y5J1_302_ACFSANGEEVLATSTHSK (UniProt Q9Y5J1) | 0.0133
VAPA_Q9P0L0_179_KLMEECK (UniProt Q9P0L0) | -0.247

Target | probe-labelled cysteine peptide fold change
USP9X_Q93008_540_ILDYSCSQDRDTQK (UniProt Q93008) | -0.0556
VASP_P50552_334_SSSSVTTSETQPCTPSSSDYSDLQR (UniProt P50552) | -0.102
VARS_P26640_381_GETTLWNPGCDHAGIATQVVVEK (UniProt P26640) | 0.084
VCP_P55072_105_LGDVISIQPCPDVK (UniProt P55072) | -0.113
UTP18_Q9Y5J1_90_CLEELVFGDVENDEDALLRR (UniProt Q9Y5J1) | -0.135
VPS13C_Q709C8_2276_GIEHSLIEENCGVVVESIQVTLECGLGHR (UniProt Q709C8) | -0.278
VPS52_Q8N1B4_119_SIRDYIQESENIASLHNQITACDAVLER (UniProt Q8N1B4) | -0.191
VAV2_P52735_44_DGVLLCQLLHNLSPGSIDLK (UniProt P52735) | 0.458
UTP20_O75691_295_EHFGTFFECLQESLLDLHTK (UniProt O75691) | 0.107
UTP6_Q9NYH9_566_EELNHPLGRPENCGQIYWR (UniProt Q9NYH9) | 0.151
VLDLR_P98155_251_CPASEIQCGSGECIHK (UniProt P98155) | -0.0623
VPS41_P49754_332_GFQENECR (UniProt P49754) | 0.0295
VARS_P26640_444_ACFTMDPK (UniProt P26640) | 0.0366
VPS8_Q8N3P4_512_QDCLTEALALAWSFHEGK (UniProt Q8N3P4) | 0.175
VAMP7_P51809_21_HAWCGGNFLEVTEQILAK (UniProt P51809) | 0.099
VPS13C_Q709C8_2289_GIEHSLIEENCGVVVESIQVTLECGLGHR (UniProt Q709C8) | 0.0377
USP7_Q93009_961_IIGVHQEDELLECLSPATSR (UniProt Q93009) | 0.123
VAV1_P15498_369_DLAQCVNEVK (UniProt P15498) | 0.344
VPS72_Q15906_163_GPHCERPLTQEELLR (UniProt Q15906) | -0.085
VARS_P26640_41_ICLQPPPTSR (UniProt P26640) | -0.12
